Data as given in PubChem BioAssay AID504774 (Drosophila RNAi Screening Center, 2011)
The deposit covers about 23,000 reagents; this is an unselected part of those that have a named target and a result. 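Values are quantile-normalised luminescence on an arbitrary scale; higher means more cells surviving MMS.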 A plus sign joins genes that one reagent is predicted to hit. Not all columns of the deposit are shown. No sequences are given here.

Aim: 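Genes required for cells to withstand methyl methanesulphonate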 (primary screen)
Cells: Drosophila Kc167 cells
Reagents: long dsRNA against Drosophila genes, about 0.25 µg dsRNA per well
Duration: about 6 days: 3 days knock-down, then 3 days with or without MMS
Treatment: methyl methanesulphonate 0.004% (w/v) for 3 days after knock-down
Read-out: 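Viability in wells given MMS, read as ATP luminescence, normalised by quantiles plate by plate and averaged across replicates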
Scale: mean viability with MMS: higher = more surviving cells after MMS

With eIF2Bbeta (eukaryotic translation initiation factor 2B subunit beta) [SID104198257], what does the deposit list?
mean viability with MMS: 3.36e6

Which result is listed for CG2260 [SID104198015]?
mean viability with MMS: 3.46e6

For Su(z)2 (Suppressor of zeste 2) [SID104187350], how do the results read?
mean viability with MMS: 2.34e6

For Su(z)2 (Suppressor of zeste 2) [SID104202327], how do the results read?
mean viability with MMS: 2.97e6

How did the screen score Smyd4-4 (SET and MYND domain containing, class 4, member 4) [SID104185748]?
mean viability with MMS: 3.63e6

For CG12398 [SID104199246], what does the deposit list?
mean viability with MMS: 3.34e6

For CG30334 [SID104185137], what was measured?
mean viability with MMS: 3.49e6

How did the screen score CG14260 [SID104194547]?
mean viability with MMS: 3.54e6

Which result is listed for Acox57D-d (acyl-Coenzyme A oxidase at 57D distal) [SID104184353]?
mean viability with MMS: 3.53e6

How did the screen score CG14968 [SID104188219]?
mean viability with MMS: 3.54e6

With Syx16 (Syntaxin 16) [SID104200299], what was measured?
mean viability with MMS: 3.45e6

What is on record for CG12320 [SID104194290]?
mean viability with MMS: 3.70e6

What is on record for l(2)34Fc (lethal (2) 34Fc) [SID104181702]?
mean viability with MMS: 3.61e6

What did the screen give for lncRNA:noe (long non-coding RNA:noe) [SID104202119]?
mean viability with MMS: 3.47e6

What is on record for vvl (ventral veins lacking) [SID104191201]?
mean viability with MMS: 3.58e6

What did the screen give for CG32650 [SID104199691]?
mean viability with MMS: 3.40e6

Which result is listed for CG7631 [SID104181665]?
mean viability with MMS: 3.59e6

What did the screen give for Tfb4 (Transcription factor B4) [SID104180467]?
mean viability with MMS: 3.32e6

For CG32061 [SID104202020], what does the deposit list?
mean viability with MMS: 3.68e6

What did the screen give for Cul5 (Cullin 5) [SID104194515]?
mean viability with MMS: 3.46e6

For CG15042 [SID104199410], what does the deposit list?
mean viability with MMS: 3.36e6

How did the screen score Hsp70Aa + Hsp70Bb + Hsp70Ba + 3 more [SID104195172]?
mean viability with MMS: 3.41e6

What is on record for Xrp1 [SID104195074]?
mean viability with MMS: 2.80e6

With Xrp1 [SID104195075], how do the results read?
mean viability with MMS: 3.39e6

What did the screen give for CG4743 [SID104195428]?
mean viability with MMS: 3.65e6

For cni (cornichon) [SID104183304], how do the results read?
mean viability with MMS: 3.34e6

What is on record for CG15579 [SID104197859]?
mean viability with MMS: 3.55e6

Which result is listed for CG17147 [SID104190041]?
mean viability with MMS: 3.38e6

Which result is listed for lili (lilipod) [SID104193935]?
mean viability with MMS: 3.47e6

How did the screen score CG7352 [SID104196025]?
mean viability with MMS: 3.52e6

With CG14374 [SID104194626], how do the results read?
mean viability with MMS: 3.66e6

For Daxx (Daxx-like protein) [SID104183047], how do the results read?
mean viability with MMS: 3.33e6

What is on record for TfIIFbeta (Transcription factor TFIIFbeta) [SID104196676]?
mean viability with MMS: 3.67e6

With TfIIFbeta (Transcription factor TFIIFbeta) [SID104201189], what was measured?
mean viability with MMS: 2.69e6

For CG14767 [SID104186292], how do the results read?
mean viability with MMS: 3.54e6

For PIG-O (Phosphatidylinositol glycan anchor biosynthesis class O) [SID104185915], what was measured?
mean viability with MMS: 3.50e6

What is on record for CG7173 [SID104191604]?
mean viability with MMS: 3.20e6

For CG7173 [SID104202609], what does the deposit list?
mean viability with MMS: 2.83e6

For tok (tolkin) [SID104196879], what was measured?
mean viability with MMS: 3.34e6

With CG33460 [SID104185362], what does the deposit list?
mean viability with MMS: 3.55e6

What is on record for CG34038 [SID104183831]?
mean viability with MMS: 3.62e6

How did the screen score CG11068 [SID104199161]?
mean viability with MMS: 3.60e6

For CG6996 [SID104190550], what does the deposit list?
mean viability with MMS: 3.40e6

What is on record for CG4133 [SID104180431]?
mean viability with MMS: 3.29e6

For CG4133 [SID104202479], how do the results read?
mean viability with MMS: 3.57e6

Part of the list above, reformatted.
{"Gene":"CG17147","PubChem SID":"SID104190041","mean viability with MMS":3.38e6}
{"Gene":"lili (lilipod)","PubChem SID":"SID104193935","mean viability with MMS":3.47e6}
{"Gene":"CG7352","PubChem SID":"SID104196025","mean viability with MMS":3.52e6}
{"Gene":"CG14374","PubChem SID":"SID104194626","mean viability with MMS":3.66e6}
{"Gene":"Daxx (Daxx-like protein)","PubChem SID":"SID104183047","mean viability with MMS":3.33e6}
{"Gene":"TfIIFbeta (Transcription factor TFIIFbeta)","PubChem SID":"SID104196676","mean viability with MMS":3.67e6}
{"Gene":"TfIIFbeta (Transcription factor TFIIFbeta)","PubChem SID":"SID104201189","mean viability with MMS":2.69e6}
